# The other results are listed elsewhere or left out. For some of these results: The exact form of the protein is not confirmed.
# Amino acid sequences for entries named in this document (tags omitted). A change or cut given only in a name is not applied to a line headed by its entry.
# UniProt P04053: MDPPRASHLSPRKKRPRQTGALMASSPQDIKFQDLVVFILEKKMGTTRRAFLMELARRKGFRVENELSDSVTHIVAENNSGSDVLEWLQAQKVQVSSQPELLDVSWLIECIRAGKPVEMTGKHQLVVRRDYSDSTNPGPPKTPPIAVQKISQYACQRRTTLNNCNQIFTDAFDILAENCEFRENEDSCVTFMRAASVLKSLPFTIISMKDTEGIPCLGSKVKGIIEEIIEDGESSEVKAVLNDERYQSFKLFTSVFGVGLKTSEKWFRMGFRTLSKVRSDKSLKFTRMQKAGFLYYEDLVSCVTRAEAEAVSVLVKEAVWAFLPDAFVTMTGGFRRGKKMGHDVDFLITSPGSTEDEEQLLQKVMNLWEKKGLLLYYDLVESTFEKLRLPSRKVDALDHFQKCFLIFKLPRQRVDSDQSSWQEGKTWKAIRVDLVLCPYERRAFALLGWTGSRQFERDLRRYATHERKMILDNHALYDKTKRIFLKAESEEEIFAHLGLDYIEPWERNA
# Assays:
# Test in all cases: protein microarray (ProtoArray v5.0), streptavidin-Alexa Fluor 647
# Settings in all cases: 3'-biotin; 20 mM Tris (pH 7.5), 5 mM MgCl2, 100 mM KCl, 0.1% Tween-20, A/T-rich and random oligonucleotide blockers; temperature not stated; high values mean tight binding
# DNAL1 (human) = test system: DNAL1 (human)
# DNAL4 = molecular target: T1, DNAL4 (UniProt O96015)
# T1 sequence: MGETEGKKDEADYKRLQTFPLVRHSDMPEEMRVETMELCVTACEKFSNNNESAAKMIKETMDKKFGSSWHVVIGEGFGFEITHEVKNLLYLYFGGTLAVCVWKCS
# DNTT = DNTT (UniProt P04053)
# DPCR1 (human) = test system: DPCR1 (human)
# DPP3 (human) = test system: DPP3 (human)
# DSCR4 (human) = test system: DSCR4 (human)
# DTNB (human) = test system: DTNB (human)
# DTNBP1 (human) = test system: DTNBP1 (human)
# DUSP6 (human) = test system: DUSP6 (human)
# DUT (human) = test system: DUT (human)
sequence,measurement,setting,value
GGGGACAGGGGTATGGGGAGGGG [G4-3 biotinylated (CtG)],binding signal,DNAL1 (human),-0.324 z-score
same,binding signal,DNAL4,-0.327 z-score
same,binding signal,DNTT,5.35 z-score
same,binding signal,DPCR1 (human),-0.318 z-score
same,binding signal,DPP3 (human),-0.307 z-score
same,binding signal,DSCR4 (human),-0.322 z-score
same,binding signal,DTNB (human),-0.32 z-score
same,binding signal,DTNBP1 (human),-0.334 z-score
same,binding signal,DUSP6 (human),-0.338 z-score
same,binding signal,DUT (human),-0.309 z-score

# Given tab-delimited: entries from further up
sequence	measurement	setting	value
GGGGACAGGGGTATGGGGAGGGG [G4-3 biotinylated (CtG)]	binding signal	DUSP6 (human)	-0.338 z-score
same	binding signal	DUT (human)	-0.309 z-score
